Laboratory results: the supplement of paper PMC10338343
± gives the standard deviation. Some of the results follow. Many entries were measured with a wide error.

tested on: EfPiwi piRISC loaded with L1MC piRNA (26 nt); assay: pre-steady-state target cleavage rate (min^-1); guide: L1MC piRNA 5'p-UAACUAAAUACUAUGCAAGCUGUAGG; MIWI and MILI are mouse PIWI proteins and EfPiwi is from a freshwater sponge; tags in brackets are library labels; higher = faster piRNA-guided slicing of the target; conditions: auxiliary factor: 500 nM Ephydatia muelleri Gtsf1
In short: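 A transcribed, DNA-blocked target RNA library (0.1 nM) and 1 nM active affinity-purified piRISC bearing one synthetic guide were incubated in HEPES–potassium acetate buffer at 33 °C for 0–8 or 0–960 min, either with or without 500 nM GTSF1 partner protein. Uncleaved targets were sequenced, normalised to depth and to weakly complementary targets, and pooled over three trials, with k3 capped at 0.0001 min^-1. The pre-steady-state cleavage rate was derived with a burst-and-steady-state fit.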

Sequence	pre-steady-state target cleavage rate
UCCUCCUACAGCUUGCAUAGUAUAAAGUUA	0.00527 ± 0.0031
UCCUGGAAGUGCUUGCAUAGUAUUUAGUUA	0.00537 ± 0.0019
UCCUGGAUCAGCUUGCAUAGUCAUUUAGUUA	0.000203 ± 0.031
UCCUGCUACAGCUUAGCAUAGUAUUUAGUUA	0.0477 ± 0.015
UCCUGGUACUGCUUGCAAAGUAUUUAGUUA	0.0752 ± 0.027
UCCUGGAUGUCGAUUGCAUAGUAUUUAGUUA	0.00712 ± 0.0027
UCCUGGAUGUCGAACGUAUGUAUUUAGAUUA	< 0.0001
UCCUGGAUGUGCUGGCAUAGUAUUUAGUUA	0.00525 ± 0.0029
UCCUGGAUCAGCUUGCAUAGUUAUUAGUUA	0.0017 ± 0.0031
UCCUGGUACAGCUUGCAUAGUAUUUAGUA	0.00657 ± 0.0033
UCCUGGAAGCAGCUUGCAUAGUAUUUAGUUA	0.0569 ± 0.013
UCCUGGAUCAGCUUGCAUAGUAUUUAGUAA	0.00774 ± 0.0024
UCCUGGAUGUCGAACGAUAGUAUAAAGUUA	0.000143 ± 0.037
UCCUGGAUCAGCUUGCAUAGUAUUUGGUUA	0.00498 ± 0.002
UCCUGGAUGAGCUUGCAAACUAUUUAGUUA	0.00161 ± 0.0021
UCCUGGAUGUCCUUGCAUAGUCAUUUAGUUA	0.000352 ± 0.0076

Sequence	pre-steady-state target cleavage rate
UCCUGGAUCUGCUUGCAUAGUAUUUAGUUA	0.116 ± 0.023
UCCUGCUAGAGCUUGCAUAGUAUUUAGUUA	0.00838 ± 0.0023
UCCUGGAUGUCGAUGCUUAGUAAUUAGUUA	0.000743 ± 0.0067
UCCUGGUCAGCUUGCAUAGUAUUUAGUUA	0.14 ± 0.027
UCCUGGAUCAGGUUGCAUAGUAUUUAGUAA	0.00537 ± 0.0021
UCCUGCUACAGCUUGGAUAGUAUUAAGUUA	0.0066 ± 0.0018
UCCUGGAUCAGGUUGGAUAGUAUUUAGUUA	0.00425 ± 0.003
UCCUGCUACAGACUUGCAUAGUAUUUAGUUA	0.00603 ± 0.0024
UCCUGGAACAGCUUGCCUAGUAUUUAGUUA	0.0399 ± 0.013
UCCUGGAACAGCUUGCAAAGUUUUUAGUUA	0.00127 ± 0.0033
UCCUGGAUCAGCUUGCAUAGUAUUUAGUGA	0.0182 ± 0.0068
UCCUGGAUGUCGUUGCAUAGUAUUCUAGUUA	0.000942 ± 0.0096
UCCUGCUACAGGUUGCAUAGUAUUUAGAUA	0.002 ± 0.0022
UCCUGGAUGUCGAACGUAAGUAUGUUAGUUA	0.000204 ± 0.022
UCCUGGAUCAGCUUGCAUCGUAUUUAGUUA	0.00918 ± 0.0028
UCCUGGAUGUCGAAGCAUAUGUAUUUAGUUA	0.000731 ± 0.0091

Some of the entries above, reformatted:
Sequence | pre-steady-state target cleavage rate
UCCUGGAUCAGCUUGCAUAGUAUUUAGUGA | 0.0182 ± 0.0068
UCCUGGAUGUCGUUGCAUAGUAUUCUAGUUA | 0.000942 ± 0.0096
UCCUGGAUGUCGAAGCAUAUGUAUUUAGUUA | 0.000731 ± 0.0091

same assay, conditions: auxiliary factor: none (no Gtsf1)

Sequence	pre-steady-state target cleavage rate
UCCUGGAUCAGCUUGCAAUAGUAUUUAGUUA	0.00101 ± 0.0083
UCCUGGUACUGCUUGCAUUGUAUUUAGUUA	0.00047 ± 0.022
UCCUGGAUGAGCUUGCAUAGUAAUUUAGUUA	0.00116 ± 0.013
UCCUGGUAGAGCUUGCAUAGUUUUUAGUUA	0.00122 ± 0.0086
UCCUGGUACAGCUUGUAUAGUAUUUAGUUA	0.000746 ± 0.017
UCCUGGAUGUCGAACGUUAGUAAUUAGUAA	< 0.0001
UCCUGCUACAGCUUUCAUAGUAUUUAGUUA	0.000621 ± 0.011
UCCUGGAUGUCCUUGCAUAGUAUGUUAGUUA	0.000595 ± 0.019
